In the experiment the target is GndR (Lpg1604), RES domain-containing predicted toxin of the GndRX system (Legionella pneumophila) (UniProt Q5ZV38). As to the kind of experiment: two-hybrid.

Results are given in words; binding and its absence hold for the method and conditions named. Some results given as binding are weak or reduced against the parent protein; the word gives no strength.

Results on one substance are retold here after PMC12457610.

As to “GndX (Lpg1605), Xre domain-containing predicted antitoxin of the GndRX system (from UniProt Q5ZV37 36-159)”, the binding entry is “binds”.
